# Test results reported in PubChem BioAssay AID2685 (National Center for Advancing Translational Sciences (NCATS), 2010).
# The list shows a part of the results. Shown are side measurements of this screen, not its main read-out; they come without a call. The list favours compounds with an active or inconclusive main result. The note in brackets gives the kind of curve behind each potency; many fits are weak.
# Assay: qHTS Assay for Lipid Storage Modulators in Drosophila S3 Cells;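 on cell number change: cells counted by Cell Tracker Red CMTPX staining in the red channel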
# Conditions: BODIPY lipid droplet fluorescence, 18-24 h; for cell number change: measured here: cell count max response, cells fed with added oleic acid
# How it was run: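 Drosophila S3 cells got compounds at several concentrations plus oleic acid (400 uM solution). Laser-scanning cytometry with 488 nm excitation read lipid droplets at 500-530 nm and cells at 575-640 nm. Percent activity was relative to 20 uM Triacsin C.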
# [1] = measured here: cell number channel AC50, cells fed with added oleic acid
# [2] = measured here: lipid fluorescence (Fed channel) AC50, cells fed with added oleic acid
compound,measurement,setting,value
Cc1cc(/C(N)=N/OC(=O)Nc2cccc(C(F)(F)F)c2)no1,cell number change,,-51.2%
same,AC50,[1],"1.64 µM [falling, partial curve]"
same,AC50,[2],"1.84 µM [falling, partial curve]"
Cc1cc(OCC(=O)Nc2ccc(S(=O)(=O)N3CCN(C)CC3)cc2)cc(C)c1Cl,AC50,[1],"0.231 µM [falling, full curve, poor fit]"
c1cc2c(cc1Oc1nc(N3CCOCC3)nc(N3CCOCC3)n1)OCO2,cell number change,,6.85%
COc1ccccc1CNC(=O)CCCOc1cc(=O)n(C)c2ccccc12,cell number change,,3.25%
same,AC50,[2],"3.26 µM [rising, single point]"
Cn1nnnc1SCC(=O)c1cccs1,cell number change,,0.605%
same,AC50,[2],"0.82 µM [falling, full curve, poor fit]"
O=C(O)c1cc2nc3c(c(C(F)(F)F)n2n1)CCc1ccccc1-3,cell number change,,30%
same,AC50,[1],"0.58 µM [rising, full curve, poor fit]"
same,AC50,[2],"6.51 µM [rising, single point]"
COc1cccc(C(=O)Nc2ccc(NC(=O)c3ccco3)nc2)c1,cell number change,,0.696%
Cc1ccc(C(=O)Nn2c(C)nc3ccccc3c2=O)cc1C,cell number change,,70.3%
same,AC50,[1],"29.1 µM [rising, single point]"
O=C(OCC(=O)N1CCOCC1)c1cc(F)c(F)cc1Cl,cell number change,,10.3%
same,AC50,[2],"29.1 µM [falling, single point]"
CCCCNC(=O)CCn1nc(-c2ccc(Cl)cc2)ccc1=O,cell number change,,-7.09%
same,AC50,[2],"29.1 µM [rising, single point]"
COc1ccc(-n2c(C)cc(C(=O)CSc3ccc(NC(C)=O)cc3)c2C)cc1,AC50,[2],"9.2 µM [rising, partial curve, poor fit]"
COC(=O)C1(C)NC(c2ccc(F)cc2)C2C(=O)N(c3ccc(C)cc3)C(=O)C21 (centres undefined),cell number change,,17.8%
O=C(COC(=O)CNC(=O)C1CCCCC1)Nc1cccc(F)c1,cell number change,,4.14%
c1ccc(-c2ccc(-c3cnc4n3CCCCC4)cc2)cc1,cell number change,,2.29%
same,AC50,[1],"2.06 µM [rising, partial curve]"
same,AC50,[2],"2.91 µM [rising, partial curve]"
CCN(CC)CCOC(=O)c1cccc(Cl)c1,cell number change,,-3.39%
same,AC50,[1],"0.291 µM [falling, partial curve]"
same,AC50,[2],"29.1 µM [falling, single point]"
O=C(O)c1cccc(-c2ccc3c(c2)OCO3)c1,cell number change,,7.73%
same,AC50,[2],"29.1 µM [rising, single point]"
C=C(C)C1CC=C(CN2CCC(O)CC2)CC1 (centres undefined),cell number change,,24.6%
same,AC50,[2],"0.82 µM [rising, full curve, poor fit]"
COc1cc(SC)ccc1C(=O)NCc1ccc(C)cc1,cell number change,,38.5%
same,AC50,[1],"25.9 µM [rising, single point]"
same,AC50,[2],"23.1 µM [rising, single point]"
O=C1CC(c2cccc([N+](=O)[O-])c2)c2ccc3ccccc3c2N1 (centres undefined),cell number change,,-17.6%
same,AC50,[1],"1.64 µM [rising, partial curve, poor fit]"
same,AC50,[2],"3.26 µM [rising, partial curve]"
CSC1=C(C#N)C(CC(C)C)C(C(C)=O)=C(C)N1 (centres undefined),cell number change,,10.7%
same,AC50,[2],"0.00461 µM [falling, full curve, poor fit]"
Fc1ccc(Nc2ccnc(Nc3ccc(F)cc3)n2)cc1,cell number change,,-33.1%
same,AC50,[1],"13 µM [falling, partial curve]"
same,AC50,[2],"3.26 µM [rising, single point]"
CCCCCCCCCC(=O)N/N=C(\C)c1cccnc1,cell number change,,-56.1%
same,AC50,[1],"14.6 µM [falling, partial curve]"
same,AC50,[2],"16.4 µM [falling, partial curve]"
O=C(C1CC(=O)N(c2ccc3c(c2)OCCO3)C1)N1CCN(c2ccccc2)CC1 (centres undefined),cell number change,,17.7%
CSc1ccccc1OCc1cc(C(=O)NCc2csc(C(C)C)n2)no1,cell number change,,21.7%
COc1ccc(Cl)cc1NC(=S)Nc1cccnc1,cell number change,,-37.6%
same,AC50,[2],"11.2 µM [rising, single point]"
Cc1cc(C)cc(N2C(=O)CC(c3ccccc3)CC2=O)c1,cell number change,,1.66%
same,AC50,[1],"6.51 µM [rising, single point]"
same,AC50,[2],"6.51 µM [rising, single point]"
O=C(CSc1nncn1-c1ccccc1)Nc1cc(F)ccc1F,cell number change,,-23%
same,AC50,[1],"0.82 µM [falling, full curve, poor fit]"
same,AC50,[2],"29.1 µM [falling, single point]"
Cc1csc(NC(=O)CSc2nnc3c4ccccc4nc(C(C)(C)C)n23)n1,cell number change,,-30.9%
same,AC50,[1],"29.1 µM [falling, single point]"
same,AC50,[2],"20.6 µM [falling, single point]"
COCCCNC(=S)Nc1ccc(CC(=O)O)cc1,cell number change,,-1.71%
O=C(Cn1c(=O)ccn(Cc2ccccc2)c1=O)Nc1cccc(S(=O)(=O)N2CCOCC2)c1,cell number change,,-1.92%
CCCCCCn1c(COc2ccccc2F)nnc1SCC(=O)N1c2ccccc2NC(=O)C1(C)C,cell number change,,-43.4%
same,AC50,[1],"1.64 µM [falling, single point]"
same,AC50,[2],"25.9 µM [falling, partial curve, poor fit]"
CC(CNS(=O)(=O)c1ccc(Cl)cc1)n1cncn1 (centres undefined),cell number change,,11.3%
same,AC50,[2],"0.92 µM [falling, single point]"
COc1ccc(/C(C)=N/NC(=O)C(NC(=O)c2ccccc2)c2n[nH]c(=O)c3ccccc23)c(OC)c1 (centres undefined),cell number change,,2%
same,AC50,[2],"0.146 µM [rising, partial curve, poor fit]"
O=C(Nc1cccnc1)c1ccccc1-c1nc(-c2ccccc2F)no1,cell number change,,5.48%
same,AC50,[2],"29.1 µM [rising, partial curve]"
O=C(NC(=S)Nc1nc2ccccc2s1)c1cccs1,cell number change,,-23%
same,AC50,[2],"20.6 µM [rising, single point]"
CCOc1ccc(NS(=O)(=O)c2ccc(C(=O)N3CCCC3)cc2)cc1,cell number change,,19.3%
same,AC50,[1],"2.06 µM [rising, partial curve]"
CCN(CC)S(=O)(=O)c1cccc(NC(=O)C2CC(=O)N(c3ccc4c(c3)OCCO4)C2)c1 (centres undefined),cell number change,,20.5%
same,AC50,[1],"2.31 µM [rising, single point]"
COc1cccc(/C=N/c2sc(Cc3ccccc3)c(C)c2C(N)=O)c1O,cell number change,,-49.8%
same,AC50,[1],"18.4 µM [falling, partial curve]"
same,AC50,[2],"29.1 µM [falling, single point]"
O=C1c2cccc3cccc(c23)C(=O)N1CCCN(C(=O)c1cccs1)c1cccc(F)c1,cell number change,,16.2%
same,AC50,[2],"32.6 µM [rising, single point]"
CCOC(=O)c1sc(=NC(=O)/C=C/c2ccccc2)n(C)c1C,cell number change,,11.8%
same,AC50,[1],"0.731 µM [rising, full curve, poor fit]"
same,AC50,[2],"2.06 µM [rising, single point]"
Cc1ccc2nc(NC(=O)CCCC(=O)O)sc2c1,cell number change,,-27.8%
same,AC50,[2],"6.51 µM [falling, single point]"
CCN(CCNC(=O)C1CCCN(S(=O)(=O)c2cnc[nH]2)C1)c1ccccc1 (centres undefined),cell number change,,-1.55%
same,AC50,[2],"6.51 µM [rising, single point]"
COCCNC(=O)C(C)OC(=O)c1cc2sccc2n1C (centres undefined),cell number change,,-11.3%
same,AC50,[2],"16.4 µM [falling, partial curve]"
CCc1nnc(NC(=O)c2nc(S(=O)(=O)Cc3cccc(C)c3)ncc2Cl)s1,cell number change,,-26.6%
same,AC50,[2],"6.51 µM [falling, partial curve, poor fit]"
Cn1c(CN2CCCCC2)nc2cc(NC(=O)c3cccc(Br)c3)ccc21,AC50,[1],"2.31 µM [rising, partial curve]"
same,AC50,[2],"0.58 µM [rising, single point]"
CCCC(=O)c1ccc(N2CCN(S(=O)(=O)c3ccc(C)cc3)CC2)c(F)c1,cell number change,,4.49%
same,AC50,[2],"16.4 µM [rising, partial curve]"
O=C(COC(=O)CN1C(=O)C2CCCCC2C1=O)NCc1ccc(Cl)cc1Cl (centres undefined),cell number change,,5.94%
COc1ccc(-n2nnnc2SCC(=O)N2CCOCC2)cc1,cell number change,,11.3%
same,AC50,[2],"4.61 µM [falling, full curve]"
O=C(c1ccco1)N(CCO)Cc1cc2cc3c(cc2[nH]c1=O)OCO3,cell number change,,55%
same,AC50,[1],"29.1 µM [rising, single point]"
same,AC50,[2],"0.651 µM [rising, single point]"
CCCCCN(C(=O)CCC(=O)OCc1ccc(C(C)(C)C)cc1)c1c(N)n(CCCC)c(=O)[nH]c1=O,cell number change,,-22%
same,AC50,[2],"0.00461 µM [falling, full curve, poor fit]"
O=C(OCc1cccc2ccccc12)C1CC(=O)N(c2ccccc2)C1 (centres undefined),cell number change,,3.66%
same,AC50,[2],"20.6 µM [falling, single point]"
NC(=O)CSc1oc(-c2ccco2)nc1S(=O)(=O)c1ccc(Br)cc1,cell number change,,-2.99%
same,AC50,[2],"32.6 µM [rising, single point]"
O=C(CN1C(=O)CCSc2ccc(S(=O)(=O)N3CCCC3)cc21)Nc1ccccc1,cell number change,,-6.75%
same,AC50,[2],"23.1 µM [rising, single point]"
Cc1cc(C)nc(N/N=C/c2ccccc2OCc2cccc(Br)c2)n1,cell number change,,-33.1%
same,AC50,[1],"13 µM [falling, partial curve]"
same,AC50,[2],"7.31 µM [rising, partial curve]"
CCCc1cc(=O)oc2cc(C)cc(OCC(=O)NCC(O)c3ccccc3)c12 (centres undefined),cell number change,,-27.2%
same,AC50,[2],"0.00461 µM [falling, full curve, poor fit]"
CCCOc1ccc(NC(=O)c2cc3cc(C)ccc3[nH]2)cc1,cell number change,,-12.9%
same,AC50,[2],"3.66 µM [rising, single point]"
O=[N+]([O-])c1ccc2oc(-c3ccccc3)nc2c1,AC50,[1],"2.59 µM [rising, single point]"
COc1cc(OC)cc(C(=O)N2CCN(C3CCCCC3)CC2)c1,cell number change,,12.6%

# No new results follow: entries from further up.
compound,measurement,setting,value
COc1ccc(/C(C)=N/NC(=O)C(NC(=O)c2ccccc2)c2n[nH]c(=O)c3ccccc23)c(OC)c1 (centres undefined),cell number change,,2%
same,AC50,[2],"0.146 µM [rising, partial curve, poor fit]"
O=C(Nc1cccnc1)c1ccccc1-c1nc(-c2ccccc2F)no1,cell number change,,5.48%
same,AC50,[2],"29.1 µM [rising, partial curve]"
O=C(NC(=S)Nc1nc2ccccc2s1)c1cccs1,cell number change,,-23%
